# Measurements reported in PubChem BioAssay AID590 (National Center for Advancing Translational Sciences (NCATS), 2007).
# The campaign covered roughly 59,000 compounds. About 6,500 (11%) were called active. Inconclusive results, whose numbers are uncertain, are shown with a selection of clear calls. Cut-off read from the data, not from the text of the source: active = max dye-equivalent concentration above about 10 nM; inconclusive = mostly about 1.1 nM to 9.6 nM; inactive = weaker than that.
# Assay: qHTS Assay for Spectroscopic Profiling in A350 Spectral Region
# Conditions: Compound autofluorescence, 340/450 nm, Alexa 350 dye-equivalents; active compounds read high
row,SMILES,max dye-equivalent concentration
1,COc1ccc(C(=O)N2CCC3(CCCN(Cc4ccc(C#N)cc4)C3)CC2)cc1,inactive
2,CCOC(=O)c1c(NC(=O)c2cccs2)sc2c1CC(C)(C)OC2,active: 30 nM
3,CC1CCC(N2CCN(c3ncccn3)CC2)CC1 (centres undefined),active: 640 nM
4,COc1ccc(CCn2nnnc2C(C(C)C)N2CCN(c3ncccn3)CC2)cc1OC (centres undefined),inconclusive: 1.3 nM
5,COc1ccc(C2C(C(=O)Nc3cccc(C)n3)c3ccccc3C(=O)N2C)cc1 (centres undefined),inactive
6,CCCN(C(=O)c1cccs1)c1nnc(-c2ccncc2)s1,inactive
7,CCCC(=O)Nc1nnc(-c2cccc(OCC)c2)s1,inconclusive: 4.4 nM
8,CN(C)c1ncc2ncc(=O)n(C3CC3)c2n1,inconclusive: 3.5 nM
9,FC(F)(F)c1cc(-c2cccs2)nc(N2CCOCC2)n1,active: 58 nM
10,C/C(=C(\C#N)C(=O)NCCCN1CCOCC1)N(C)C,inconclusive: 2.7 nM
11,COC(=O)C1=CNC=C(C(=O)OC)C1c1cccc(OC)c1,active: 250 nM
12,COc1ccccc1NC(=O)N(Cc1ccco1)Cc1cc2cc(C)cc(C)c2[nH]c1=O,inconclusive: 1.2 nM
13,O=C(Nc1c(C(=O)N2CCOCC2)cnn1-c1ccccc1Cl)c1ccco1,inconclusive: 1.6 nM
14,CCCOc1ccc(Cl)cc1CN1CCOCC1,inconclusive: 1.8 nM
15,CN(C(=O)COC(=O)C1c2ccccc2Oc2ccccc21)C1CCS(=O)(=O)C1 (centres undefined),inconclusive: 3.8 nM
16,CCOC(=O)N1CCN(C(=O)CCCn2c(=O)[nH]c3ccccc3c2=O)CC1,inconclusive: 5.9 nM
17,N#Cc1c(/N=C/c2ccco2)oc(-c2ccccc2)c1-c1ccccc1,inactive
18,CCOc1ccc(OCC(=O)N2CCOCC2)cc1,inactive
19,COCCNC(=O)C(c1ccc(C)o1)N(Cc1cccs1)C(=O)c1snc(C(N)=O)c1N (centres undefined),active: 88 nM
20,Cc1nc2sccn2c1-c1nc(-c2cc3ccccc3o2)cs1,inconclusive: 1.6 nM
21,O=C(Cn1cccc1)Nc1ccc(OC(F)(F)F)cc1,inactive
22,Cc1nnc(SCC(=O)N(C)Cc2ccccc2)[nH]c1=O,inconclusive: 1.1 nM
23,CCOc1ccccc1C1C(C#N)=C(N)Oc2cc(C)n(Cc3ccccn3)c(=O)c21 (centres undefined),inconclusive: 1.3 nM

row,SMILES,max dye-equivalent concentration
1,O=c1c2ccccc2nc(-c2ccccc2)n1CCN1CCOCC1,inconclusive: 6.7 nM
2,O=C(NC1CC2CCCC(C1)N2C(=O)NC1CCCCC1)c1ccccc1 (centres undefined),inconclusive: 1.7 nM
3,Cc1ccc(-c2[nH]nc3c2C(c2ccc(OC(=O)N4CCOCC4)cc2)C(C#N)=C(N)O3)cc1 (centres undefined),inactive
4,CC(=O)CC1(C)OC(N)=C(C#N)C1(C#N)C#N (centres undefined),inconclusive: 4.2 nM
5,Cc1ccc(Nc2nnc(SCC(=O)NCc3ccco3)s2)cc1,inactive
6,Cc1ccc(CNc2oc(COc3ccccc3Cl)nc2C#N)cc1,inconclusive: 1.8 nM
7,CSc1nc(C)c2c(c1C#N)CCCC2,inconclusive: 5 nM
8,COc1ccc(C2CC(=O)c3cnc(NC(=O)c4cc(OC)cc(OC)c4)nc3C2)cc1 (centres undefined),inconclusive: 1.2 nM
9,CCOCCCNC(=O)C1CCN(S(=O)(=O)N2CC(C)CC(C)C2)CC1 (centres undefined),inconclusive: 2 nM
10,COc1ccc(C(CNC(=O)CN2C(=O)NC3(CC(C)CC(C)(C)C3)C2=O)N2CCOCC2)cc1 (centres undefined),inconclusive: 1.4 nM
11,Cc1nc2cc(-c3ccc(F)cc3)nn2c(N2CCOCC2)c1C,inconclusive: 3.5 nM
12,CCOC(=O)Cn1ncc(-c2ccccc2)c1N,inconclusive: 8.2 nM
13,Cc1ccc2cc(CN(C(=O)c3cccnc3)C(C)C)c(=O)[nH]c2c1,inactive
14,O=c1c(-c2ccccc2)nc2cnc(Oc3ccccc3)nc2n1C[C@H]1CCCO1,inconclusive: 2.1 nM
15,NCCOC[C@H](N)C(=O)O,inactive
16,Cc1cc(C)n(Cc2ccc(F)cc2)c(=O)c1C#N,inactive
17,COc1cccc(CC(NC(C)=O)C(=O)NC2CCN(c3nc(C)cc(C)c3C#N)CC2)c1 (centres undefined),active: 90 nM
18,CCn1c(=O)c(-[n+]2ccccc2)c(O)c2ccccc21,inconclusive: 1.2 nM
19,COC(=O)c1ccc2c(=O)n(Cc3ccc4c(c3)OCO4)c(SCC(=O)N3CCCC3)nc2c1,active: 16 nM
20,CNCCCC12CCC(c3ccccc31)c1ccccc12,inconclusive: 1.8 nM
21,CN(C)CCn1c(CO)nc2c1c(=O)n(C)c(=O)n2C,inactive
22,COC(=O)c1c(C(=O)OC)c(C)n(Cc2cccnc2)c1C,inactive
23,CCOC(=O)N1CC=C2C(C#N)=C(N)C(C#N)(C#N)[C@H](c3cccs3)[C@H]2C1,active: 35 nM

row,SMILES,max dye-equivalent concentration
1,COc1ccc2c3c([nH]c2c1)[C@@H]1C[C@@H]2[C@@H](C[C@H](O)[C@H](OC)[C@H]2C(=O)O)CN1CC3,active: 14 nM
2,O=c1c(-c2ccc(F)c(F)c2)nc2cncnc2n1-c1ccccc1,inconclusive: 4.8 nM
3,NC(N)=NC(N)=Nc1c(F)c(F)c(F)c(F)c1F,inactive
4,Cc1nc2cnc(N3CCNCC3)nc2n(Cc2ccc(F)cc2)c1=O,active: 110 nM
5,COc1ccc(NC(=O)c2oc3ccccc3c2NC(=O)c2ccc3c(c2)OCO3)cc1,active: 88 nM
6,COc1ccc(Cl)cc1S(=O)(=O)N1CCN(C(=O)c2ccco2)CC1,inconclusive: 6.9 nM
7,CC(C)OC(=O)c1c(N)sc2c1CCCC2,inactive
8,CC(C)(C)NC(=O)CSc1nnc(C2CC2)n1Cc1ccccc1,inconclusive: 1.4 nM
9,O=C(Nc1c(F)cc(F)cc1Br)c1cccnc1,inconclusive: 1.2 nM
10,CN(C)[C@H]1C(=O)C(C(=O)NCN2CCCC2)=C(O)[C@]2(O)C(=O)C3=C(O)c4c(O)cccc4[C@](C)(O)[C@H]3C[C@H]12,inconclusive: 1.3 nM
11,COc1ccc2[nH]cc(CCNc3nc(-c4ccc(C(=O)N(C)C)cc4)nc4ccccc34)c2c1,inactive
12,CC1(C)N([O-])C(c2ccccc2)=C[N+](=O)C1(C)C,active: 400 nM
13,Cc1ccc(C)c(-n2nnnc2Sc2nnnn2-c2ccccc2)c1,inactive
14,CCOC(=O)C1CCCN(c2nnnn2-c2ccccc2)C1 (centres undefined),inconclusive: 2 nM
15,Cc1ccccc1NC(=O)CC1SCCNC1=O (centres undefined),inconclusive: 2.6 nM
16,COc1ccc2c(c1)c1c(n2C(C)=O)C(OC(C)=O)=NCC1,active: 53 nM
17,Fc1ccc(Nc2nc(N3CCOCC3)c3ccccc3n2)cc1,active: 11 nM
18,COc1ccc(-n2c(SCC(=O)Nc3cc(C)on3)nc3ccc(O)cc3c2=O)cc1OC,inconclusive: 8.6 nM
19,c1ccc(-n2ncc3c2ncn2nc(-c4ccco4)nc32)cc1,inconclusive: 2.3 nM
20,Cc1nc(N[C@@H](Cc2c[nH]c3ccccc23)C(=O)O)c2oc3ccccc3c2n1,inconclusive: 1.3 nM
21,COCCCN1C(=O)C(O)=C(C(=O)c2ccco2)C1c1ccc(Br)cc1 (centres undefined),inconclusive: 1.5 nM
22,CN1CCc2c(sc3c2c(=O)n(-c2ccccc2)c2nnc(SCc4ccc(F)cc4)n32)C1,active: 10 nM
23,CCCCCCNC(=O)Cc1nc2nc(C)cc(C)n2n1,inconclusive: 1.7 nM

# Structures above that contain a CF3 group (two):
row,SMILES,max dye-equivalent concentration
9,FC(F)(F)c1cc(-c2cccs2)nc(N2CCOCC2)n1,active: 58 nM
21,O=C(Cn1cccc1)Nc1ccc(OC(F)(F)F)cc1,inactive

# More entries:

row,SMILES,max dye-equivalent concentration
1,C=CCn1c(=S)[nH]c2ccc(Br)cc2c1=O,active: 1000 nM
2,Cn1c2ccccc2c2ncn(CCCN3CCOCC3)c(=O)c21,inconclusive: 3.1 nM
3,COc1cccc(Cn2c(Oc3ccccc3)nc3c2c(=O)n(C)c(=O)n3C)c1,inconclusive: 1.6 nM
4,Cc1ccc2[nH]c(=O)c(CN(Cc3ccco3)C(=O)c3ccncc3)cc2c1,inconclusive: 6.1 nM
5,CC12CCC(C(=O)N3CCN(c4ncccn4)CC3)(c3nc4ccccc4nc31)C2(C)C (centres undefined),inactive
6,O=C(c1ccco1)N1C(=O)c2cccc3cccc1c23,inconclusive: 6.5 nM
7,CCOC(=O)c1c(SC)nc(SC)c2c1CCC2,inconclusive: 2.9 nM
8,COCCNC(=O)c1cc2sc3ccccc3c2s1,inconclusive: 1.3 nM
9,C[C@@H](O)[C@H]1C(=O)N2C(C(=O)O)=C(S[C@@H]3CN[C@H](C(=O)N(C)C)C3)[C@H](C)[C@H]12,inconclusive: 1.9 nM
10,COc1ccc(OC)c(-c2cc(C(=O)Nc3c(C)nn(Cc4ccccc4)c3C)no2)c1,inconclusive: 4.9 nM
11,O=C(CN1C(=O)C2CC=CCC2C1=O)Nc1nc2ccccc2[nH]1 (centres undefined),inconclusive: 9 nM
12,CCN(CC)CCCNC(=O)c1cn(CCOC)c(=O)c2c1c1ccccc1n2C,active: 430 nM
13,O=c1c2ccccc2nc2c3ccccc3ncn12,active: 170 nM
14,COCCn1c(=O)c(-c2cccc(C#N)c2)nc2cnc(N3CCN(C)CC3)nc21,active: 20 nM
15,O=c1cc(CSc2ccccn2)nc(N2CCN(c3ccccc3)CC2)[nH]1,inconclusive: 3.1 nM
16,O=C(c1ccccc1Cl)N1CCN(c2ccccn2)CC1,inconclusive: 2.1 nM
17,CC(=O)NCCNc1nc(-c2ccc(N(C)C)cc2)nc2ccccc12,inconclusive: 2.5 nM
18,Cc1ccc2[nH]c3c(c2c1)CN(C(=O)CN1CCCc2ccccc21)CC3,active: 14 nM
19,CCOC(=O)CSc1nnc(CNC(=O)c2cccs2)n1Cc1ccccc1,inconclusive: 1.7 nM
20,CCCn1c(=O)c(C(=O)Nc2ccccc2C(=O)OCC)c(O)c2ccccc21,active: 110 nM

# Reprinted at random: 2 records from the list.
row,SMILES,max dye-equivalent concentration
4,Cc1ccc2[nH]c(=O)c(CN(Cc3ccco3)C(=O)c3ccncc3)cc2c1,inconclusive: 6.1 nM
9,C[C@@H](O)[C@H]1C(=O)N2C(C(=O)O)=C(S[C@@H]3CN[C@H](C(=O)N(C)C)C3)[C@H](C)[C@H]12,inconclusive: 1.9 nM
